No constants are given. Whether binding was seen depends on the method and setting. Binding seen in cells or lysates may run through a third protein. Some results given as binding are weak or reduced against the parent protein; the word gives no strength.
Molecular target: T1, alpha4 protein (mouse (endogenous in LV tissue)) (UniProt Q61249)
T1 sequence: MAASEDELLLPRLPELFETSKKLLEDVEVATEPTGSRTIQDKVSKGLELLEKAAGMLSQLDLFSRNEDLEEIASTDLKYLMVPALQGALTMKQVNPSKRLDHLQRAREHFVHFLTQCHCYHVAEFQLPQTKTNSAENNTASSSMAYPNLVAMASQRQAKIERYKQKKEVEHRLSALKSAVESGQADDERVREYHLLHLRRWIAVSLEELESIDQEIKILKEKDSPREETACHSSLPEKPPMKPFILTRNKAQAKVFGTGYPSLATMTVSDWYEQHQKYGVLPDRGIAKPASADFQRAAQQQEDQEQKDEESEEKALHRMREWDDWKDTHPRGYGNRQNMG
Test: co-IP; alpha4 immunoprecipitated from Triton-soluble mouse LV tissue lysate (SHAM or TAC, 4 weeks pressure overload) with rabbit polyclonal anti-alpha4 antibody overnight at 4 °C and protein A paramagnetic beads; lysis buffer 150 mM NaCl, 20 mM Tris-HCl, 1% Triton X-100, pH 7.5; controls rabbit IgG and PBS; blots for PP2AC and PP6C in immunocomplexes and in pre-IP and post-IP lysates

- binding: binds
B1: PP6C, protein phosphatase 6 catalytic subunit (enzyme, UniProt Q9CQR6 1-305)
chain: MAPLDLDKYVEIARQCKYLPENDLKRLCDYVCDLLLEESNVQPVSTPVTVCGDIHGQFYDLCELFRTGGQVPDTNYIFMGDFVDRGYYSLETFTYLLALKAKWPDRITLLRGNHESRQITQVYGFYDECQTKYGNANAWRYCTKVFDMLTVAALIDEQILCVHGGLSPDIKTLDQIRTIERNQEIPHKGAFCDLVWSDPEDVDTWAISPRGAGWLFGAKVTNEFVHINNLKLICRAHQLVHEGYKFMFDEKLVTVWSAPNYCYRCGNIASIMVFKDVNTREPKLFRAVPDSERVIPPRTTTPYFL

Reference: PMC5438423
